This passage reports z-score results from PubChem BioAssay AID1347423 (Functional Genomics Laboratory (NCATS/FGL), 2020).

Hit rate of the full screen: of about 52,000 sequences, about 210 (0.4%) were called active.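 The calls were made as follows: active = gene whose silencing raises cell survival under the drug, median off-target-corrected z-score across its silencing RNAs 2 or more; inactive = the rest.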 The list shows a part of the results.

The assay in a line: Resistance to Poly (ADP-Ribose) Polymerase inhibitor: Gene Identification via Genome-wide siRNA Screen. The settings on record: mouse BRCA2 R2336H ES cells, olaparib, CellTiter-Glo viability; active compounds read high. In a few lines:
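Genome-wide siRNA screen (3 siRNAs/gene, 20 nM) in mouse ES cells carrying hypomorphic BRCA2 R2336H; olaparib 500 nM added 48 h post-transfection, CellTiter-Glo viability 72 h later. Normalized to plate-median negative control; MAD z-scores, gene median, seed-adjusted.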
GUGGUUUGCUACCCAGCAUTT against Ear6: the z-score is inactive: -1.85. In the case of “GGAUUUAUCCUGGUGACUUTT against 2310005N03Rik”, the z-score was inactive: 0.136.

As for CGGAUGAAUUCCAGCUUCATT against Vdac1, the z-score was inactive: 1.76. Turning to “GCUCCACUGGCAGUCACUUTT against 4833416I09Rik”, the z-score is inactive: -0.44. Take “GAAAUCAGAAGAAAUGAAGTT against 1810007E14Rik”: the z-score is inactive: 1.05.

GGGAUGCAGUAAAUGUGUATT against Acaa1: the z-score was inactive: 0.568. The figure for GGACAGAGGCGAUAGAAUCTT against Pou6f1 is inactive: 0.405. On to GGGACAAAAUGUGAAGACUTT against Pap, for which the z-score is inactive: 0.691. The figure for GGCCACGGACAUUUGCAUGTT against Plekhf1 is inactive: 0.14; for “GCAAAUCCCAGUCUCACCATT against 2600017H02Rik” it is inactive: -2.73; for GCCAAAAGUCUCAGACUGATT against AW049829 it is inactive: -1.67. Regarding GGGUCAAGCAGUGUAAAGATT against Dnajb12, the z-score is inactive: -0.687.

For the sequence GGAAAGAAAGAGAAGAACATT against Bhc80, the z-score was inactive: -0.347. For the sequence “GGAGAGGAGAAAGUACCGUTT against A430096B05Rik”, the z-score is inactive: 0.521. With CAUCAUUGAACAACUUGACTT against Olfr1466, the z-score is inactive: -0.208. With “GGAAGCUUCUGAGAGUAAATT against 4930503E14Rik”, the z-score is inactive: 0.287. Take GGGAGACCUUACUUUUUAATT against LOC436240: the z-score was inactive: -0.0832. Under GGUUACUGCUCUCAUGUACTT against Olfr247 stands inactive: -0.854; under GGCAAGAAUGUUGUCCACCTT against Dnaja4, inactive: 1.49; under CCGAGUGGUACUUCUGUAUTT against Ift172, inactive: 0.0881. For CCUGUAAAGUCUAAAUAACTT against Tatdn1, the z-score was inactive: -0.436. Consider GGAAGAUAGUGCGAUCCAATT against Adcy5, for which the z-score is inactive: -1.06. As to “GGUGGUGUGUUUAAUCCCATT against 9330133O14Rik”, the z-score was inactive: 0.31.

With GGAUAUUGAUUGCUUUGUUTT against Uox, the z-score is inactive: -0.135. Regarding GGAAGUCAUUAUGUGAUCCTT against Nfyb, the z-score is inactive: -0.348. The figure for CCCUCAGAUGAUCUGUGCCTT against Tsp50 is inactive: 3.4; for GGUCCUAGGCCUACUCAUCTT against Mcp it is inactive: -1.04.

For the sequence “GCAGUGCUCUUUAGCAUAATT against 4933416E05Rik”, the z-score is inactive: 3.01.
